# Results as given in the supplement of paper PMC8728848.
# The list shows a part of the results.
# Key:
# Assay in all cases: glycan array binding signal (z-score within array); higher = stronger binding
# Settings in all cases: glycan notation: IUPAC condensed, linker removed
# [1] = target: GalNAc(b1-4)GlcNAc(b1-2)Man
# How it was run: (§1)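 The Consortium for Functional Glycomics database supplied 3228 glycan arrays, of which those lacking an available protein sequence were dropped. The binding signal, a within-array Z-score, was averaged across arrays of the same protein sequence and across linkers. Negative scores can be read as non-binding.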
# [2] = target: GalNAc(b1-4)GlcNAc(b1-2)Man(a1-3)[GalNAc(b1-4)GlcNAc(b1-2)Man(a1-6)]Man(b1-4)GlcNAc(b1-4)GlcNAc
# How it was run: as §1
# [3] = target: GalNAc(b1-4)GlcNAc(b1-3)GalNAc(b1-4)GlcNAc
# How it was run: as §1
# [4] = target: GalNAc(b1-4)GlcNAc6S
# How it was run: as §1
# [5] = target: GalNAc(b1-6)GalNAc
# How it was run: as §1
# [6] = target: GalNAc3S(b1-4)GlcNAc
# How it was run: as §1
# [7] = target: GalNAc3S(b1-4)GlcNAc3S
# How it was run: as §1
# [8] = target: GalNAc3S(b1-4)[Fuc(a1-3)]GlcNAc
# How it was run: as §1
# [9] = target: GalNAc4S6S(b1-4)GlcNAc
# How it was run: as §1
# [10] = target: GalNAc6S(b1-4)GlcNAc
# How it was run: as §1
# [11] = target: Glc(a1-4)Glc
# How it was run: as §1
# [12] = target: Glc(a1-4)Glc(a1-4)Glc(a1-4)Glc
# How it was run: as §1
# [13] = target: Glc(a1-6)Glc(a1-6)Glc
# How it was run: as §1
# [14] = target: Glc(a1-6)Glc(a1-6)Glc(a1-6)Glc
# How it was run: as §1
# [15] = target: Glc(b1-4)Glc
# How it was run: as §1
# [16] = target: Glc(b1-6)Glc
# How it was run: as §1
# [17] = target: GlcA(b1-3)Gal
# How it was run: as §1
# [18] = target: GlcA(b1-3)GlcNAc
# How it was run: as §1
# [19] = target: GlcA(b1-6)Gal
# How it was run: as §1
# [20] = target: GlcA3S(b1-3)Gal(b1-4)GlcNAc(b1-2)Man
# How it was run: as §1
# [21] = target: GlcA3S(b1-3)Gal(b1-4)GlcNAc(b1-3)Gal(b1-4)Glc
# How it was run: as §1
# [22] = target: GlcNAc(a1-3)Gal(b1-4)GlcNAc
# How it was run: as §1
# [23] = target: GlcNAc(a1-4)Gal(b1-3)GlcNAc
# How it was run: as §1
# [24] = target: GlcNAc(a1-4)Gal(b1-4)GalNAc
# How it was run: as §1
# [25] = target: GlcNAc(a1-4)Gal(b1-4)GlcNAc
# How it was run: as §1
# [26] = target: GlcNAc(a1-4)Gal(b1-4)GlcNAc(b1-3)Gal(b1-4)Glc
# How it was run: as §1
# [27] = target: GlcNAc(a1-4)Gal(b1-4)GlcNAc(b1-3)Gal(b1-4)GlcNAc
# How it was run: as §1
# [28] = target: GlcNAc(a1-4)Gal(b1-4)GlcNAc(b1-3)Gal(b1-4)GlcNAc(b1-3)Gal(b1-4)GlcNAc
# How it was run: as §1
# [29] = target: GlcNAc(a1-4)Gal(b1-4)GlcNAc(b1-3)Gal(b1-4)[Fuc(a1-3)]GlcNAc(b1-3)Gal(b1-4)[Fuc(a1-3)]GlcNAc
# How it was run: as §1
# [30] = target: GlcNAc(a1-6)Gal(b1-4)GlcNAc
# How it was run: as §1
binder,measurement,setting,value
"CD4 (Rattus norvegicus), P05540 (protein) MCRGFSFRHLLPLLLLQLSKLLVVTQGSTSITAYKSEGESAEFSFPLNLGEESLQGELRWKAEKAPSSQSWITFSLKNQKVSVQKSTSNPKFQLSETLPLTLQIPQVSLQFAGSGNLTLTLDRGILYQEVNLVVMKVTQPDSNTLTCEVMGPTSPKMRLILKQENQEARVSRQEKVIQVQAPEAGVWQCLLSEGEEVKMDSKIQVLSKGLNSGGGSGGGTGGGDLAPQMLRELQETNAALQDVRELLRQQVKEITFLKNTVMECDACGLDRNLPPLAPLGPHPETLVKVKDAEDQLGARVGYIELDLNSGKILESFRPEERFPMMSTFKVLLCGAVLSRIDAGQEQLGRRIHYSQNDLVEYSPVTEKHLTDGMTVRELCSAAITMSDNTAANLLLTTIGGPKELTAFLHNMGDHVTRLDRWEPELNEAIPNDERDTTMPVAMATTLRKLLTGELLTLASRQQLIDWMEADKVAGPLLRSALPAGWFIADKSGAGERGSRGIIAALGPDGKPSRIVVIYTTGSQATMDERNRQIAEIGASLIKHW",glycan array binding signal (z-score),[1],0.458
same,glycan array binding signal (z-score),[2],0.941
same,glycan array binding signal (z-score),[3],-0.075
same,glycan array binding signal (z-score),[4],-0.666
same,glycan array binding signal (z-score),[5],-0.406
same,glycan array binding signal (z-score),[6],-0.999
same,glycan array binding signal (z-score),[7],-0.54
same,glycan array binding signal (z-score),[8],0.419
same,glycan array binding signal (z-score),[9],-0.505
same,glycan array binding signal (z-score),[10],-0.714
same,glycan array binding signal (z-score),[11],-0.04
same,glycan array binding signal (z-score),[12],-0.256
same,glycan array binding signal (z-score),[13],-0.167
same,glycan array binding signal (z-score),[14],-0.081
same,glycan array binding signal (z-score),[15],-0.504
same,glycan array binding signal (z-score),[16],0.392
same,glycan array binding signal (z-score),[17],1.33
same,glycan array binding signal (z-score),[18],0.12
same,glycan array binding signal (z-score),[19],-0.548
same,glycan array binding signal (z-score),[20],0.355
same,glycan array binding signal (z-score),[21],-0.053
same,glycan array binding signal (z-score),[22],-1.32
same,glycan array binding signal (z-score),[23],-0.079
same,glycan array binding signal (z-score),[24],-1.38
same,glycan array binding signal (z-score),[25],-0.451
same,glycan array binding signal (z-score),[26],-1.51
same,glycan array binding signal (z-score),[27],-0.192
same,glycan array binding signal (z-score),[28],-0.936
same,glycan array binding signal (z-score),[29],0.256
same,glycan array binding signal (z-score),[30],-0.632

# Some of the entries above, reformatted:
binder	measurement	setting	value
CD4 (Rattus norvegicus), P05540 (protein) MCRGFSFRHLLPLLLLQLSKLLVVTQGSTSITAYKSEGESAEFSFPLNLGEESLQGELRWKAEKAPSSQSWITFSLKNQKVSVQKSTSNPKFQLSETLPLTLQIPQVSLQFAGSGNLTLTLDRGILYQEVNLVVMKVTQPDSNTLTCEVMGPTSPKMRLILKQENQEARVSRQEKVIQVQAPEAGVWQCLLSEGEEVKMDSKIQVLSKGLNSGGGSGGGTGGGDLAPQMLRELQETNAALQDVRELLRQQVKEITFLKNTVMECDACGLDRNLPPLAPLGPHPETLVKVKDAEDQLGARVGYIELDLNSGKILESFRPEERFPMMSTFKVLLCGAVLSRIDAGQEQLGRRIHYSQNDLVEYSPVTEKHLTDGMTVRELCSAAITMSDNTAANLLLTTIGGPKELTAFLHNMGDHVTRLDRWEPELNEAIPNDERDTTMPVAMATTLRKLLTGELLTLASRQQLIDWMEADKVAGPLLRSALPAGWFIADKSGAGERGSRGIIAALGPDGKPSRIVVIYTTGSQATMDERNRQIAEIGASLIKHW	glycan array binding signal (z-score)	[2]	0.941
same	glycan array binding signal (z-score)	[3]	-0.075
